The results in this text go back to article PMC7819943, “Rice protein-binding microarrays: a tool to detect cis-acting elements near promoter regions in rice”.

Amino acid sequences for entries named in this document (tags omitted).
UniProt Q0JBA9, entry or part of it: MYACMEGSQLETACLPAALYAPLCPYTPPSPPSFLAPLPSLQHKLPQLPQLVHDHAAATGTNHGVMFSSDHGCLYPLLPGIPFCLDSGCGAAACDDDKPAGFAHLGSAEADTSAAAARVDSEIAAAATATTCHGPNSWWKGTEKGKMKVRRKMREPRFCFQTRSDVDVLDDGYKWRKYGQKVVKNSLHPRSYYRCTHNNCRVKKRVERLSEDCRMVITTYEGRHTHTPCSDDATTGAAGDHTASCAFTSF

Some of the results follow.

This assay addresses OsWRKY34 (Oryza sativa, UniProt Q0JBA9 1-250). In words: protein-binding microarray (RPBM); PBS, 2% BSA, 51.3 ng/ul salmon testes DNA, 50 uM zinc acetate, 200 nM TF, 25 C, 1 h; high values mean tight binding. The note with it: protein: recombinant; tags: N-terminal polyhistidine and DsRed monomer fusion (pET32a); label: CyDye5-dUTP incorporated in the synthesized complementary strand; 3' TTTTT single-stranded linker to array surface; dsDNA, one strand shown. In short, it runs like this:
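The binding signal for each feature is its fluorescence intensity in arbitrary units. An Axon 4000B scanner was used to read a custom Agilent array that had been made double-stranded with Cy5-dUTP primer extension, blocked with 2% BSA, incubated at 25 °C for 1 h with 200 nM protein in PBS, 2% BSA, salmon testes DNA and 50 µM zinc acetate, and washed. The protein was an N-terminal polyhistidine–DsRed transcription factor fusion from E. coli BL21-CodonPlus, purified on Ni–NTA.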
On to “TCTTAATCCGTCACTCTGTTTTCCCAACCATCACCTTATACGGAGTCACCTAGTGCAG”, for which the binding signal was 8170 fluorescence intensity (a.u.).

As to “CGTCTCATTCTTTTTTCGACCCTGTTTTTTCTATCCAGAACGGAGTCACCTAGTGCAG”, the binding signal is 9990 fluorescence intensity (a.u.).

As to “ATTTGTGATATGCCACCTGACCCACATGTCATTGACTCATCGGAGTCACCTAGTGCAG”, the binding signal was 10500 fluorescence intensity (a.u.).

Regarding “CCTTGACTCAACCACCCTACCATCATGCCAGTCATCCACTCGGAGTCACCTAGTGCAG”, the binding signal was 8530 fluorescence intensity (a.u.).

As for “TATGTTGTATGCTTTGTATGATTTTGTTTATGTTTCATTGCGGAGTCACCTAGTGCAG”, the binding signal is 9940 fluorescence intensity (a.u.).

For the sequence “GTAAAATAGTAATTCAGGAGTGGTGGGTGTTCCTGAAAGACGGAGTCACCTAGTGCAG”, the binding signal is 10200 fluorescence intensity (a.u.).

As for “GCTGTGCCTTGGGTATTGCCTTTTCATATGTCATTTCGAGCGGAGTCACCTAGTGCAG”, the binding signal is 8050 fluorescence intensity (a.u.).

In the case of “GATTGGGGCGTTCTTGGGAGCTCGGGAATTCGGGTGGTTTCGGAGTCACCTAGTGCAG”, the binding signal was 11900 fluorescence intensity (a.u.).

For the sequence “AGTTTTCTAAGGGCTTGTTGTTACCGGTGTAGCGTTGCGACGGAGTCACCTAGTGCAG”, the binding signal was 8200 fluorescence intensity (a.u.).

“TCTCCAACCCCAAAGGTTGTGTGTGTTGTTGTGTACAGGTCGGAGTCACCTAGTGCAG”: the binding signal was 9700 fluorescence intensity (a.u.).

With “GACACCGTTAACTTTTTAGCATATGTTTGACCGTTCGTCTCGGAGTCACCTAGTGCAG”, the binding signal is 10600 fluorescence intensity (a.u.).

On to “GCAGTAGTCTAAACCCAGCTCTATCTCTTTATTACATTTTCGGAGTCACCTAGTGCAG”, for which the binding signal is 8330 fluorescence intensity (a.u.).

In the case of “CCACCACCACCACGCCACGGCAGCCGCACCGCACCGCACCCGGAGTCACCTAGTGCAG”, the binding signal was 8390 fluorescence intensity (a.u.).

For “AGAAGCTGGGCAGTCGGTGGGCTAGGGGTAGGGAAGGAAACGGAGTCACCTAGTGCAG”, the binding signal is 10500 fluorescence intensity (a.u.).

With “TTGGTTGCTTGATCATCTTTTATACACTTTGTCCCATAATCGGAGTCACCTAGTGCAG”, the binding signal was 10600 fluorescence intensity (a.u.).

For “AAGGCGGCGGTGGGAGGGGAGAGGGAGATGGGGAGGTTGCCGGAGTCACCTAGTGCAG”, the binding signal was 10900 fluorescence intensity (a.u.).

Turning to “TGTGCTCGCCACATCCGATCCATCGATTCGTGGAATTCTCCGGAGTCACCTAGTGCAG”, the binding signal was 9530 fluorescence intensity (a.u.).

Take “ACTGTATATCGATGGCCCACTCGGCCCGACCCGTCCCGGCCGGAGTCACCTAGTGCAG”: the binding signal was 10600 fluorescence intensity (a.u.).

Consider “TGCTGTTAAAATGATCCATCCAATTGTCCTGTTCATTTTGCGGAGTCACCTAGTGCAG”, for which the binding signal is 8170 fluorescence intensity (a.u.).

Take “GTGGGTGGGATCCAGGAAGATTTTAAGCTGACTGCTGCGGCGGAGTCACCTAGTGCAG”: the binding signal is 8510 fluorescence intensity (a.u.).

“AACATCTACGAACTTGATCTTCCCATCAGAGACACCGACTCGGAGTCACCTAGTGCAG”: the binding signal is 8100 fluorescence intensity (a.u.).

“ACACCTACTAGTACTTTTGCAATACCAAAATTTTTGCCACCGGAGTCACCTAGTGCAG”: the binding signal was 8600 fluorescence intensity (a.u.).

Consider “GCACTTGCCTCTTGCGTAGAGGTTGCTCTTGCTGGTTTTTCGGAGTCACCTAGTGCAG”, for which the binding signal was 8280 fluorescence intensity (a.u.).

For “CCACCTACCCTACATGTATATACTATGCTACCTAGATTCACGGAGTCACCTAGTGCAG”, the binding signal was 8700 fluorescence intensity (a.u.).

As to “ACGTGGCCAGTGGCCATTCACGCATGCCCGATCGTTTTTCCGGAGTCACCTAGTGCAG”, the binding signal was 10300 fluorescence intensity (a.u.).

On to “ATACTACTCCTGTTTTTTTAACAACACTTTAATCTTTCTTCGGAGTCACCTAGTGCAG”, for which the binding signal is 9170 fluorescence intensity (a.u.).

In the case of “CTTTATTTGCATATCATTTCCATTTTTTACAAACTCTGTACGGAGTCACCTAGTGCAG”, the binding signal is 8490 fluorescence intensity (a.u.).

With “GTCTCGACGTGCGTAAACTCATCTATGGTCTCTCGATTCACGGAGTCACCTAGTGCAG”, the binding signal is 10000 fluorescence intensity (a.u.).

Take “GTACCGACAAATTTGATTTCTGCAACTTCCGCATCTTTTCCGGAGTCACCTAGTGCAG”: the binding signal was 10300 fluorescence intensity (a.u.).

On to “CGTTGGGAGTTGGGAGGGATGGGTGGTGCATCAAGATTGACGGAGTCACCTAGTGCAG”, for which the binding signal was 23500 fluorescence intensity (a.u.).

Turning to “GCCCAGGTGTTCGTCCGTGTCCTCTTCTCCACTCCACACACGGAGTCACCTAGTGCAG”, the binding signal was 12300 fluorescence intensity (a.u.).

For “CCTCCTCAACCGGATGCCGTTCTCTCTCCACCTCTCGTCGCGGAGTCACCTAGTGCAG”, the binding signal was 9680 fluorescence intensity (a.u.).

“TGTGTAGTGTCTGCATGTGTTGTTTGTGAATATTTTCTGCCGGAGTCACCTAGTGCAG”: the binding signal was 8480 fluorescence intensity (a.u.).

Take “TTAGTACCACTGCCACCCTGTCATCTCTGATAGGACTATACGGAGTCACCTAGTGCAG”: the binding signal is 9610 fluorescence intensity (a.u.).

For the sequence “TGAATGGGTGATGCTGGGGAGCTGGGGATATTGGATATCTCGGAGTCACCTAGTGCAG”, the binding signal was 15300 fluorescence intensity (a.u.).

As to “CCGTTACATGACGTGGGCCCCACCCAGCCGCGCCAGCCCACGGAGTCACCTAGTGCAG”, the binding signal is 8450 fluorescence intensity (a.u.).

“AAACGACGCCGGCCGACTGTCTCCAGCTGATCGACCACTTCGGAGTCACCTAGTGCAG”: the binding signal is 8170 fluorescence intensity (a.u.).

Turning to “CTTTTTTTTTCCCTCTTCTCTCATCTCGTTTTGTCACGTGCGGAGTCACCTAGTGCAG”, the binding signal was 8610 fluorescence intensity (a.u.).

“TTCCTACGTGCTGCCGCGCGCCACATATTAATCAGCCGCACGGAGTCACCTAGTGCAG”: the binding signal was 8120 fluorescence intensity (a.u.).

On to “GTCGCGGTTGCCCCTCATCGTTGCTCACGGCTGCTTCGCACGGAGTCACCTAGTGCAG”, for which the binding signal was 8440 fluorescence intensity (a.u.).

For the sequence “TATTTTTATTCTTATTCCCATTGCGCTTCTTCATTTTCTTCGGAGTCACCTAGTGCAG”, the binding signal is 11600 fluorescence intensity (a.u.).

“CTCTATCCATGGAATCTCATCCATCATCCATACATAACGACGGAGTCACCTAGTGCAG”: the binding signal is 8210 fluorescence intensity (a.u.).

In the case of “TATCGCACGTATCTACCAAATTCTTTGTACCGTGGGTACACGGAGTCACCTAGTGCAG”, the binding signal is 9210 fluorescence intensity (a.u.).

In the case of “GCCGCTTCTACTACTACTAACTAGCCTATTTCGTCTTCCTCGGAGTCACCTAGTGCAG”, the binding signal is 8400 fluorescence intensity (a.u.).

Regarding “GGGCATCCCTACTACGATTTCGTTATGTATTATTTGTTAACGGAGTCACCTAGTGCAG”, the binding signal was 9810 fluorescence intensity (a.u.).

For “CTCAGCCGCCACGTCGCATAAAACCGGGGTCAAAACCACCCGGAGTCACCTAGTGCAG”, the binding signal was 9130 fluorescence intensity (a.u.).

For “TCTTGGTACTGAACTACTTATTGCTGCTTTCATGTTGCCGCGGAGTCACCTAGTGCAG”, the binding signal is 10000 fluorescence intensity (a.u.).

“AGGGTCTATTCACTTTGCTACCATTTTCAACCTTACCAAACGGAGTCACCTAGTGCAG”: the binding signal is 11300 fluorescence intensity (a.u.).

For the sequence “ACTTTTAGTTGGATTACTTCTTTTTGTGAACGTTTTGCTACGGAGTCACCTAGTGCAG”, the binding signal was 10100 fluorescence intensity (a.u.).

For the sequence “GCCTAATGATTCCATCCGATCTGAGTGTGTTGCCTGTAGACGGAGTCACCTAGTGCAG”, the binding signal was 9780 fluorescence intensity (a.u.).

Take “GACCCTATAAATTCGGCCATGTTTAAACCATTTCACCACACGGAGTCACCTAGTGCAG”: the binding signal is 12700 fluorescence intensity (a.u.).

Regarding “TTTCATTAGTGCTACGATTGCATTTTGTCAATTCAATAATCGGAGTCACCTAGTGCAG”, the binding signal was 9070 fluorescence intensity (a.u.).

“CGCGCCCTCCTCCGCCGCCGCTCGCCGCCGTTCGTCTCCGCGGAGTCACCTAGTGCAG”: the binding signal was 9840 fluorescence intensity (a.u.).

As for “TTTGCAACTTCTGTTTTATACTTCTACTTAGTATCAAAATCGGAGTCACCTAGTGCAG”, the binding signal is 8160 fluorescence intensity (a.u.).
